Experimental data taken from US20160069900A1.
These are yes or no findings as the source states them, for the method shown. Some binding calls cover weakened binding; strength is not graded here. One block for each binder: values may come before it.

Sequences of proteins named here, by UniProt entry; tags and fusion partners are left off.
UniProt Q9NZQ7: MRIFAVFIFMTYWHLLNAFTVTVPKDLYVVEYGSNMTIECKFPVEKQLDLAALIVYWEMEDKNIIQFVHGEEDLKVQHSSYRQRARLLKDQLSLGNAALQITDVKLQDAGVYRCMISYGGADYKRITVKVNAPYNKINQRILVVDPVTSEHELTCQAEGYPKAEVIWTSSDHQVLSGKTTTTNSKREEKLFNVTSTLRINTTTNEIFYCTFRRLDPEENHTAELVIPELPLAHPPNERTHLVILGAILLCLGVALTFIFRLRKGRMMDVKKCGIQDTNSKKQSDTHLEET

Molecular target: soluble PD-L1 in serum test samples (human) (UniProt Q9NZQ7)
Experiment: depletion of 1/5 diluted serum with antibody-coupled agarose beads, read by ECL sandwich immunoassay

- binding: binds
B1: Monoclonal Antibody 22C3 (antibody, V domains shown)
VH: QVHLQQSGAELAKPGASVKMSCKASGYTFTSYWIHWIKQRPGQGLEWIGYINPSSGYHEYNQKFIDKATLTADRSSSTAYMHLTSLTSEDSAVYYCARSGWLIHGDYYFDFWGQGTTLTVSS
VL: DIVMSQSPSSLAVSAGEKVTMTCKSSQSLLHTSTRKNYLAWYQQKPGQSPKLLIYWASTRESGVPDRFTGSGSGTDFTLTISSVQAEDLAVYYCKQSYDVVTFGAGTKLELK

- binding: binds
B2: Monoclonal Antibody 5F9 (antibody, V domains shown)
VH: EVHLQQSGPELVKPGASVKISCKASGAPFTDFNIHWMKQSHGGSLEWIGSIYPYNGNTNYNQKFKNKATLTVDDSSITAYMEFRSLTSEDSAFYYCARGYIVTTAWFAYWGQGTLVTVSA
VL: DIVMTQSHKFMSTSVGDRVSITCKASQDTSTAVAWYQQKPGQSPKLLIYWASTRHTGVPDRFTGSASGIDFTLTISSLQAEDLALYYCQQHYRTPWTFGGGTKLEIK
